{
  "source": "patent US20130035326A1",
  "about": "(AMBIT BIOSCIENCES CORPORATION, priority 2009, published 2013)",
  "target": "kinase panel containing either 359 or 386 distinct kinases",
  "assay": "Selectivity score S10 from competition binding against a panel of kinases",
  "details": "compounds at 10 μM; panel of 386 distinct kinases",
  "description": "Competition binding assays used herein were developed, validated and performed as described in Fabian et al., Nature Biotechnology 2005, 23,329-336. Kinases were produced as fusions to T7 phage (See, Fabian et al. or WO04/015142) or alternatively, the kinases were expressed in HEK-293 cells and subsequently tagged with DNA for PCR detection (See, WO08/005,310). For the binding assays, streptavidin-coated magnetic beads were treated with biotinylated affinity ligands for 30 min at room temperature to generate affinity resins. […] Kds were determined using an eleven point threefold serial dilutions. […] The kinase concentration in the eluates was measured by quantitative PCR.\nA selectivity score (S10) is a quantitative measure of selectivity of a compound against a panel of kinases. An S10 was calculated for a compound by dividing the number of kinases found to have a percent of control (DMSO) less than 10 by the total number of distinct kinases tested (excluding mutant variants). Percent of control (POC) is calculated by subtracting the signal of the control compound (POC=0) from the signal of the test compound and dividing the outcome by the signal of DMSO (POC=100) minus the signal of the control compound. […]",
  "note": "At least one compound was matched to its structure with a doubt left.",
  "data": [
    {"molecule": "CC(C)(C)c1cc(NC(=O)Cc2ccc(-c3cnc4c(c3)CCCN4)cc2)no1.CS(=O)(=O)O", "note": "[Example 120, 6-(4-(2-((5-(tert-butyl)isoxazol-3-yl)amino)-2-oxoethyl)phenyl)-1,2,3,4-tetrahydro-1,8-naphthyridin-1-ium methanesulfonate]", "values": [
      {"measurement": "Kinase specificty: S(10)-386 panel", "result": "B (0.1<B≦0.2 nM)"}
    ]}
  ]
}
